PubChem BioAssay AID504764 – Drosophila RNAi Screening Center | 2011
In all, the deposit lists about 22,000 reagents; below is an unselected part of those with a known target gene and a result. In the full data, 403 (1.9%) are marked active. 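Unnormalised raw counts per well; ratio z-scores behind the hit calls and whether each hit raises or lowers signal are not deposited.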 A plus sign joins genes that one reagent is predicted to hit. Not stated in the record: the amount of reagent.

Aim: 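Knock-downs that raise or lower a Notch target reporter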 (primary screen)
Cell system: Drosophila Kc167 cells
Knock-down reagent: long dsRNA against Drosophila genes
Time to read-out: about 5 days (4 days dsRNA, then 24 h after transfection)
Conditions: transfection of constitutively active membrane-tethered Notch lacking the extracellular domain, read 24 h later
Measurement: 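Light from a Notch-responsive E(spl)m3 luciferase reporter under active Notch, with control-promoter and no-Notch reporter wells to normalise; raw counts from paired wells a and b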
Direction: induced reporter light, run 1, well a and induced reporter light, run 1, well b: higher = more light from the Notch target reporter with active Notch; control promoter light, run 1, well a and control promoter light, run 1, well b: higher = more light from the viral control promoter (cell number, transfection, viability); uninduced reporter light, run 1, well a: higher = more light from the Notch target reporter without active Notch
Rule for the call: 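Wells with low control signal or poorly matching duplicates excluded; duplicates averaged; per source plate, z beyond ±2 for induced/control log2 ratio or beyond ±1.8 for induced/uninduced marks a hit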
Meaning of the calls: active = modifier hit (raised or lowered Notch signal); inactive = not a hit

target gene,amplicon,"induced reporter light, run 1, well a","induced reporter light, run 1, well b","control promoter light, run 1, well a","control promoter light, run 1, well b","uninduced reporter light, run 1, well a",activity call
Tsen54,DRSC10527,1.82e5,1.26e5,1.91e5,1.78e5,7790,inactive
CG3544,DRSC00613,2.00e5,2.19e5,2.25e5,2.44e5,18655,inactive
p120ctn,DRSC07753,2.10e5,1.86e5,2.26e5,3.01e5,11905,inactive
CG13728,DRSC10056,2.47e5,1.85e5,2.43e5,2.12e5,6750,inactive
Ostgamma,DRSC03074,87710,1.07e5,89960,91650,5430,inactive
Cyt-c-p,DRSC03310,1.14e5,1.18e5,1.27e5,1.23e5,10670,inactive
CG11456,DRSC11665,1.01e5,92225,62100,85370,7635,inactive
CG10738,DRSC09792,1.37e5,1.29e5,2.09e5,1.67e5,8335,inactive
Ir67a,DRSC09897,2.01e5,1.66e5,2.16e5,1.45e5,6700,inactive
CG31441,DRSC15723,50520,46720,40705,35295,2560,inactive
trsn,DRSC06078,2.08e5,1.48e5,2.31e5,1.96e5,17605,inactive
CHKov1,DRSC01566,58425,60425,63985,80195,6215,inactive
CHKov1,DRSC01696,57935,67415,56695,51465,5015,inactive
CHKov1,DRSC14258,1.38e5,1.35e5,1.93e5,1.72e5,10670,inactive
CHKov1,DRSC20937,2.10e5,1.94e5,3.10e5,3.16e5,19490,inactive
CG4408,DRSC15574,2.12e5,2.15e5,2.58e5,2.59e5,13690,inactive
Uch,DRSC00797,1.93e5,1.64e5,2.24e5,1.99e5,17900,inactive
CG43740,DRSC17994,83645,87075,1.15e5,86120,5405,inactive
CG14913,DRSC02397,1.46e5,1.44e5,90315,1.03e5,19590,inactive
Atg1,DRSC09809,1.10e5,88625,64960,30700,7060,inactive
Atg1,DRSC09810,1.44e5,1.49e5,2.29e5,1.51e5,3810,active
CG4907,DRSC15673,1.59e5,1.32e5,1.64e5,1.84e5,13035,inactive
Klp98A,DRSC16724,1.68e5,1.68e5,2.69e5,2.17e5,14595,inactive
Klp98A,DRSC21834,,,,,,inactive
CG5597,DRSC04517,1.14e5,1.61e5,91485,1.24e5,8275,inactive
CG1750,DRSC15240,1.93e5,1.98e5,2.72e5,2.54e5,10365,inactive
CG17477,DRSC15239,1.73e5,2.04e5,1.87e5,1.88e5,13555,inactive
Ssl2,DRSC14395,1.47e5,1.17e5,1.80e5,1.88e5,12810,inactive
ERp44,DRSC20215,1.96e5,1.61e5,2.13e5,2.90e5,10955,inactive
RpS16,DRSC04442,78985,85130,86290,68310,6610,inactive

A few values from the list:
Value for Atg1 [DRSC09809] under “uninduced reporter light, run 1, well a”: 7060
CHKov1 [DRSC20937], induced reporter light, run 1, well b = 1.94e5
Ir67a [DRSC09897], induced reporter light, run 1, well a: 2.01e5
CG4408 [DRSC15574], induced reporter light, run 1, well a → 2.12e5
For “control promoter light, run 1, well a”, RpS16 [DRSC04442] shows 86290

The listing continues:
target gene,amplicon,"induced reporter light, run 1, well a","induced reporter light, run 1, well b","control promoter light, run 1, well a","control promoter light, run 1, well b","uninduced reporter light, run 1, well a",activity call
CG17633,DRSC02631,1.28e5,1.61e5,71960,1.02e5,19120,inactive
Tti1,DRSC15163,72110,73605,87350,68260,4242,inactive
elgi,DRSC10242,97265,91205,66220,59735,7500,inactive
CG10747,DRSC02104,45940,44830,42955,53245,3128,inactive
CG12115,DRSC17811,76615,73775,86930,88830,6980,inactive
clt,DRSC04621,53860,50920,47200,50570,3055,inactive
jumu,DRSC16651,1.13e5,90550,73895,53400,5545,inactive
CG15812,DRSC08479,1.46e5,1.43e5,2.47e5,2.51e5,10230,inactive
CG13931,DRSC08400,1.15e5,1.06e5,1.81e5,2.60e5,8520,inactive
CG17294,DRSC02596,94840,90115,84900,99325,8110,inactive
sut1,DRSC07700,1.27e5,1.29e5,1.20e5,1.24e5,10795,inactive
ens,DRSC08454,1.26e5,1.83e5,94715,25390,11480,inactive
Fas3,DRSC01638,1.00e5,81580,1.02e5,96185,8505,inactive
Fas3,DRSC03326,1.34e5,1.45e5,1.56e5,1.75e5,12738,inactive
CG11438,DRSC11660,1.30e5,93020,1.16e5,98920,7760,inactive
Tsp5D,DRSC18380,1.31e5,1.39e5,2.00e5,2.90e5,9670,inactive
Coq7 + shf,DRSC18448,1.91e5,1.41e5,2.33e5,2.24e5,12435,inactive
Trim9,DRSC02242,1.42e5,1.59e5,74980,98740,16270,inactive
Tom20,DRSC10899,1.14e5,1.58e5,90190,95440,10645,inactive
CG33333,DRSC13233,69125,47475,71270,63915,7600,inactive
